Measured values as given in patent US20240034743A9, “TRICYCLIC COMPOUNDS AS EGFR INHIBITORS” (QILU PHARMACEUTICAL CO., LTD., priority 2020, published 2024).
For at least one compound, name, drawing or mass did not settle the structure.

System: PC9 (Del19/T790M/C797S) cells
Assay: In vivo efficacy study, PC9 (Del19/T790M/C797S) xenograft
Parameters: species or system BALB/c-nu mice
Conditions: po, 21 consecutive days
Description: (III) In Vivo Efficacy Study Experiment
The anti-tumor activity and toxic and side effects of compound 53 and compound 27 administered orally for 21 consecutive days on PC9 (Del19/T790M/C797S) were evaluated.
SPF-grade and female BALB/c-nu mice, purchased from Beijing Vital River Laboratory Animal Technology Co., Ltd.
PC9 (Del19/T790M/C797S) cells, self-constructed by Qilu Pharmaceutical Co., Ltd.
PC9 (Del19/T790M/C797S) cells were cultured in RPMI 1640 medium containing 10% FBS at 37° C. in a 5% carbon dioxide incubator; and the cells in exponential growth phase were collected for inoculation.
Under sterile conditions, a cell suspension of in vitro cultured PC9 (Del19/T790M/C797S) was taken, centrifuged to adjust the cell concentration to 3×10^7 cells/mL, and inoculated in mice at the right side armpit (0.1 mL/mouse), and the day of inoculation was defined as day 0. […]
b. The animals were grouped and then started to be administrated, and the volume for oral administration (po) was 10 mL/kg; the weighing was performed once daily with consecutively 21-day administration; the tumor diameters were measured 2 times a week.
c. Tumor volume (TV): tumor volumes were measured 2 times a week to observe tumor mass volume changes and growth rate. […] The growth inhibition effect of the compounds on tumor tissues is evaluated by using a tumor growth inhibition TGI (%). […]

SMILES | Tumor growth inhibition (in words)
COc1cc2c(cc1Nc1ncc(Br)c(Nc3ccc4nccnc4c3NS(C)(=O)=O)n1)-c1cnn(C)c1CCN2C(C)C [Compound 53] | significantly inhibit tumor growth
COc1cc2c(cc1Nc1ncc(Br)c(Nc3ccccc3P(C)(C)=O)n1)-c1cnn(C)c1CCN2C(C)C [Compound 27] | significantly inhibit tumor growth
